Laboratory results: PubChem BioAssay AID2685 (National Center for Advancing Translational Sciences (NCATS), 2010)
The other results are listed elsewhere or left out. Shown are side measurements of this screen, not its main read-out; they come without a call. The list favours compounds with an active or inconclusive main result. Potencies come from curve fits of mixed quality, noted in brackets.

Experiment: qHTS Assay for Lipid Storage Modulators in Drosophila S3 Cells;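 as to cell number change: cells counted by Cell Tracker Red CMTPX staining in the red channel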
Settings: BODIPY lipid droplet fluorescence, 18-24 h; for cell number change: measured here: cell count max response, cells fed with added oleic acid
Method in brief: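 Drosophila S3 cells got compounds at several concentrations plus oleic acid (400 uM solution). Laser-scanning cytometry with 488 nm excitation read lipid droplets at 500-530 nm and cells at 575-640 nm. Percent activity was relative to 20 uM Triacsin C.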

[1] = measured here: cell number channel AC50, cells fed with added oleic acid
[2] = measured here: lipid fluorescence (Fed channel) AC50, cells fed with added oleic acid

Compound | cell number change [%] | AC50 [1] | AC50 [2]
OCCNC(=S)NCCc1ccccc1 | -48.4 | 25.9 µM [falling, partial curve, poor fit] | 16.4 µM [falling, single point]
CCOC(=O)CCCCC(=O)c1[nH]c(=O)[nH]c1CSc1nc(-c2ccccc2)c(C#N)c(=O)[nH]1 | 10.6 | – | –
C=CCN1C(=O)[C@@H]2Cc3c([nH]c4ccccc34)C(c3cc(OC)c(OC)c(OC)c3)N2C1=S (stereo partly drawn) | 249 | 29.1 µM [rising, single point] | 29.1 µM [rising, single point]
Cc1cccc(N(CC(=O)NC2CCCCC2)C(=O)CCC(=O)Nc2ccccn2)c1 | – | 1.16 µM [rising, partial curve] | 0.731 µM [rising, full curve]
CC/C(=N\NC(=O)c1ccc2c(c1)OCO2)c1ccccc1 | 31.2 | 7.31 µM [rising, full curve, poor fit] | 29.1 µM [rising, single point]
COc1ccccc1Cn1c(=S)[nH]c2cc(C(=O)NCCCN3CCOCC3)ccc2c1=O | -19.1 | – | –
CC(C(=O)NCc1ccco1)n1cc(C(=O)c2ccco2)c2ccccc21 (stereo not drawn) | -9.39 | – | 25.9 µM [rising, single point]
CCNC(=S)N/N=C/c1cn(Cc2ccccc2F)c2ccccc12 | -30.7 | – | 25.9 µM [falling, single point]
S=c1[nH]nc(-c2ccccc2)n1/N=C/c1ccc(-c2ccccc2Cl)o1 | -54.8 | 29.1 µM [falling, single point] | 2.31 µM [rising, partial curve]
CCCCOC(=O)n1c(=O)oc2cc(S(=O)(=O)N3CCCCC3)ccc21 | -133 | 25.9 µM [falling, partial curve] | 1.03 µM [falling, full curve]
COC(=O)Cc1[nH]nc2c1C1(C(=O)N(Cc3ccc(Cl)cc3)c3ccccc31)C(C#N)=C(N)O2 (stereo not drawn) | 2.57 | – | 4.11 µM [rising, single point]
CCc1ccc(NC(=O)[C@H](C)NC(=O)C2CCN(C(=O)[C@@H](N)CC(C)C)CC2)cc1 | 14.2 | – | 8.2 µM [rising, partial curve]
O/N=C/Cc1[nH]c2ccccc2c1-c1ccccc1 | -33.9 | 16.4 µM [falling, single point] | 29.1 µM [falling, single point]
O=C(COC(=O)CCC(=O)c1ccccc1)Nc1nnc(-c2ccccc2)o1 | -17.8 | – | 0.103 µM [falling, full curve, poor fit]
CCn1c(Nc2ccccc2Cl)nc2ccccc21 | – | – | 0.461 µM [rising, partial curve, poor fit]
CN(Cc1ccccc1)C(=O)CCC1CCN(C(=O)CC2=CCCCC2)CC1 | – | – | 6.51 µM [rising, single point]
CC1(C)Cc2cccc(Oc3ccc(S(=O)(=O)N4CCCCC4)cn3)c2O1 | -0.622 | 6.51 µM [falling, single point] | –
COc1ccccc1NC(=O)CSc1nnc(CNC(=O)c2ccccc2F)o1 | 18.4 | – | –

Compound | cell number change [%] | AC50 [1] | AC50 [2]
Cc1cccc(C)c1NC(=O)CN(C)C(=O)Cc1cccc(C(F)(F)F)c1 | 6.67 | – | 0.411 µM [rising, partial curve]
Cc1ccn(-c2cccc(-n3ccc(C)n3)n2)n1 | 5.36 | – | 25.9 µM [rising, single point]
CC(C)N1CCN(Cc2ccc(Sc3nncn3C)o2)CC1CCO (stereo not drawn) | -42.9 | 0.291 µM [falling, full curve, poor fit] | 29.1 µM [falling, single point]
CSc1cccc(CN2CCC(Oc3cccc(C(=O)N4CCCC4)c3)CC2)c1 | -23.3 | – | 29.1 µM [rising, single point]
COc1ccccc1NS(=O)(=O)c1cc(C)ccc1C | 37.6 | 4.61 µM [rising, partial curve] | –
COc1ccc(/C=C/C(=O)Nc2nc(C)cc(C)n2)cc1OC | 2.76 | – | –
COc1ccccc1C(=O)NCC1CCN(c2ccc(S(=O)(=O)N3CCOCC3)cc2)CC1 | 289 | 8.2 µM [rising, partial curve] | 2.31 µM [rising, partial curve]
O=C(NNS(=O)(=O)c1ccc2ccccc2c1)NC1CCCCC1 | 30 | – | –
COC(=O)Cc1ccc(NC(=O)c2ccc3c(c2)C(=O)N(CC2CCCO2)C3=O)cc1 (stereo not drawn) | -39.5 | 13 µM [falling, partial curve, poor fit] | 11.6 µM [falling, partial curve]
CCOc1ccc(S(=O)(=O)NCc2ccco2)cc1 | -3.95 | – | 0.731 µM [falling, full curve]
Cc1ccc(C(=O)Nc2cccnc2)cc1S(=O)(=O)N1CCCC1 | -21.3 | – | 20.6 µM [falling, single point]
COc1ccc([C@@H]2[C@@H]3C(=O)N(C(C)(C)C)C(=O)[C@@H]3[C@]3(CC(C)C)C(=O)N(c4cccc(F)c4)C(=O)N23)cc1 | 21.1 | – | 4.11 µM [falling, single point]
Cc1cc(C(=O)N2CCN(c3ncccc3C#N)CC2)no1 | -54.3 | 0.411 µM [falling, full curve] | 0.58 µM [falling, full curve]
CC(=O)Nc1ccc(NC(=O)[C@H](C)NC(=O)c2ccco2)cc1 | 43.1 | 20.6 µM [rising, partial curve, poor fit] | –
Cc1c(NCc2cc(Cl)cc(Cl)c2O)c(=O)n(-c2ccccc2)n1C | -2.38 | 0.146 µM [falling, full curve, poor fit] | –
CCOC(=O)C(C)Sc1nnc(Cc2cc(=O)[nH]c(=O)[nH]2)n1-c1cccc(OC)c1 (stereo not drawn) | -0.0541 | – | –
O=c1ccc(S(=O)(=O)N2CCCC2)cn1Cc1nc(-c2ccc(F)cc2)no1 | – | – | 0.164 µM [rising, full curve]
O=C(CSc1nnc(Cc2cc(=O)[nH]c(=O)[nH]2)n1-c1ccc(F)cc1)NC1CCCC1 | -15.1 | – | 2.06 µM [falling, single point]

3 compounds from above, ordered by molecular weight, ascending:
Compound | cell number change [%] | AC50 [1] | AC50 [2]
COc1ccccc1NS(=O)(=O)c1cc(C)ccc1C | 37.6 | 4.61 µM [rising, partial curve] | –
Cc1cc(C(=O)N2CCN(c3ncccc3C#N)CC2)no1 | -54.3 | 0.411 µM [falling, full curve] | 0.58 µM [falling, full curve]
Cc1ccc(C(=O)Nc2cccnc2)cc1S(=O)(=O)N1CCCC1 | -21.3 | – | 20.6 µM [falling, single point]
